From PMC5595348 come the findings set out here.

Protein sequences, listed by entry. Tags and fused reporters are not part of them.
UniProt O14964: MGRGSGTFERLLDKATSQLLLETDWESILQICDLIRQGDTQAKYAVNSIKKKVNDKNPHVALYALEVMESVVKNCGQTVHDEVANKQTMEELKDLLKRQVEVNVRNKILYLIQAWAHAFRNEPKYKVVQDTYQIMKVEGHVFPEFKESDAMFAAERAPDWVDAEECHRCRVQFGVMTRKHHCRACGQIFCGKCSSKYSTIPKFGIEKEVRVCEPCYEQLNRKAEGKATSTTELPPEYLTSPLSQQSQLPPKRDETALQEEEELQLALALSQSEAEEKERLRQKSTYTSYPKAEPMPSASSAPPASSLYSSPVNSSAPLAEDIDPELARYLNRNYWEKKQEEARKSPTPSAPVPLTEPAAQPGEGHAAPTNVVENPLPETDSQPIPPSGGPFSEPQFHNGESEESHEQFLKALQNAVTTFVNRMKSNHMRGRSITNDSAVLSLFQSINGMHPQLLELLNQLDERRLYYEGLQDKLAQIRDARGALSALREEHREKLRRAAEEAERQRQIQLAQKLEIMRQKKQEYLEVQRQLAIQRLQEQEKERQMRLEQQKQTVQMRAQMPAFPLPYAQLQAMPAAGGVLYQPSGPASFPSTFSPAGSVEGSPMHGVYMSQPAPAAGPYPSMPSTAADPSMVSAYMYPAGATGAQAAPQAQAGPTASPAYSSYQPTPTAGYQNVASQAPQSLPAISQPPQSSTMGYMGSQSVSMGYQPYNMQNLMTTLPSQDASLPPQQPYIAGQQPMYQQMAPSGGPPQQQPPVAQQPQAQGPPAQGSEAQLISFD
UniProt P51617: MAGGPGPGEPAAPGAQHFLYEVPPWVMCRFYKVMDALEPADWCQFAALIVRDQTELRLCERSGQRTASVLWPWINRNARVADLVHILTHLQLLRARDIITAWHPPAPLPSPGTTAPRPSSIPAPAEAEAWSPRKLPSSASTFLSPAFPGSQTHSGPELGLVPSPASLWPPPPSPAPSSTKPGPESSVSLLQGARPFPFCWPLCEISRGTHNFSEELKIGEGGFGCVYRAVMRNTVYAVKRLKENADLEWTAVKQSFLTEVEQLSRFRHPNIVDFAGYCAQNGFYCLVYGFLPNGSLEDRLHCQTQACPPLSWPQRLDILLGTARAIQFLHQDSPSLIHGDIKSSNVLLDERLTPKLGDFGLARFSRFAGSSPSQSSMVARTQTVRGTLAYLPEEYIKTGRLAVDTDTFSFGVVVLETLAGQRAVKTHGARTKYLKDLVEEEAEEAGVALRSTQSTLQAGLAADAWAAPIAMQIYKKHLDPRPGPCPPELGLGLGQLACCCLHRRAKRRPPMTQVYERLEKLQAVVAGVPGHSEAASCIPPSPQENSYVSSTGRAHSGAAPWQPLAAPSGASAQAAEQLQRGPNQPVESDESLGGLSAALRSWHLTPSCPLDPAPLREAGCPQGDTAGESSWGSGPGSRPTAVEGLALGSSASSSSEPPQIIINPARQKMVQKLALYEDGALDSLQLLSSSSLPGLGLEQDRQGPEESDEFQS
UniProt Q99836: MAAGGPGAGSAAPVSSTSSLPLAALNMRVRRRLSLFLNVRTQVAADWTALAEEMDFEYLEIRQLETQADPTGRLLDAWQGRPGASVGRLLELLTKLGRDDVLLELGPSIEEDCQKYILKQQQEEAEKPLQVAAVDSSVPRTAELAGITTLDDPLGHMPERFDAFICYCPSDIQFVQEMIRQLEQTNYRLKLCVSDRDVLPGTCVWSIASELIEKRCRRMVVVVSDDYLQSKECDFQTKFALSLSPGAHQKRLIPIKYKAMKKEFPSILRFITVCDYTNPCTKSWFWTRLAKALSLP

These are yes or no findings as the source states them, for the method shown. Binding seen in cells or lysates may run through a third protein. Some binding calls cover weakened binding; strength is not graded here. For part of these data: Sequences can lack the tags named with a protein.

The target of experiment [1] is HRS-Myc fusion protein (hepatocyte growth factor-regulated tyrosine kinase substrate) (human) (UniProt O14964). Put plainly: co-IP; HEK293T cells co-transfected with HRS-Myc and GFP or GFP fusion proteins; whole cell lysates immunoprecipitated with anti-Myc antibody; Western blot with anti-GFP and anti-Myc. In general terms: A western blot detects proteins with antibodies after separation by electrophoresis.

In experiment [2] the target is T1, TLR7 (endogenous) (human (endogenous in THP-1)) (UniProt Q9NYK1).
T1 sequence: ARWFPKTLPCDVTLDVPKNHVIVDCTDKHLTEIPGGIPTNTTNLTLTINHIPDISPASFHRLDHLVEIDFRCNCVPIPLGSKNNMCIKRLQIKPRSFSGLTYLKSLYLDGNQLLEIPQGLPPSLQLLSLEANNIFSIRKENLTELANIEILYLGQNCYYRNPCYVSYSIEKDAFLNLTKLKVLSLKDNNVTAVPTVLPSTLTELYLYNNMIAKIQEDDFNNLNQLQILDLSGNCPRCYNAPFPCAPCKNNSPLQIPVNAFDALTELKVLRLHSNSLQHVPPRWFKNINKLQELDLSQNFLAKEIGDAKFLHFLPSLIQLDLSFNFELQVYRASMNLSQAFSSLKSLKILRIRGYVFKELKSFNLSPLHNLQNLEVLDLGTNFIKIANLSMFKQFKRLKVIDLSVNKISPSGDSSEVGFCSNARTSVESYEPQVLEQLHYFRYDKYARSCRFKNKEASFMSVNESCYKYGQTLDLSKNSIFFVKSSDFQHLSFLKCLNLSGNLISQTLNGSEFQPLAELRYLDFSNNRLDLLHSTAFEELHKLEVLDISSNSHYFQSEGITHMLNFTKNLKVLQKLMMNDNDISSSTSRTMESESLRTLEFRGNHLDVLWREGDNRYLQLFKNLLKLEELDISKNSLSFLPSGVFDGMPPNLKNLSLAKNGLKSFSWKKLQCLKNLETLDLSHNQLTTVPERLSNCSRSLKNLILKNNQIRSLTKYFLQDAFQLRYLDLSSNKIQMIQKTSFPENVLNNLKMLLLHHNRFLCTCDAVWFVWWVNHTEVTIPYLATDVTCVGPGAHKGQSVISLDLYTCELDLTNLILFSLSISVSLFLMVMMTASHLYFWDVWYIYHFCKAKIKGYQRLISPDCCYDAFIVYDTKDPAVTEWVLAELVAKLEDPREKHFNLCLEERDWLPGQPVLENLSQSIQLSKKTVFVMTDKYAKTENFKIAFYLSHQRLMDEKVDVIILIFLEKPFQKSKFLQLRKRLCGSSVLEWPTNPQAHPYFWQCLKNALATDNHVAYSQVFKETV
Put plainly: co-IP; endogenous proteins; macrophages derived from THP-1 cells stimulated with R848 (100 ng/ml) or infected with EV71 (MOI = 5) for various times, also after transfection of siR-HRS or siR-NC; lysed in RIPA buffer; immunoprecipitated with rabbit anti-TLR7 or normal rabbit IgG and protein G …; Western blot.

For the molecule “GFP-tagged IRAK1 (from UniProt P51617 1-712)”, the binding entry in experiment [1] is “no binding”.

In the case of “GFP-tagged MyD88 (from UniProt Q99836 1-296)”, the binding entry in experiment [1] is “no binding”.

Turning to “IRAK1 (endogenous) (from UniProt P51617 1-712)”, the binding entry in experiment [2] is “binds”.

For “MyD88 (endogenous) (from UniProt Q99836 1-296)”, the binding entry in experiment [2] is recorded as “binds”.

B1: GFP-tagged TAB1 (protein, UniProt Q15750 1-504)
chain: MAAQRRSLLQSEQQPSWTDDLPLCHLSGVGSASNRSYSADGKGTESHPPEDSWLKFRSENNCFLYGVFNGYDGNRVTNFVAQRLSAELLLGQLNAEHAEADVRRVLLQAFDVVERSFLESIDDALAEKASLQSQLPEGVPQHQLPPQYQKILERLKTLEREISGGAMAVVAVLLNNKLYVANVGTNRALLCKSTVDGLQVTQLNVDHTTENEDELFRLSQLGLDAGKIKQVGIICGQESTRRIGDYKVKYGYTDIDLLSAAKSKPIIAEPEIHGAQPLDGVTGFLVLMSEGLYKALEAAHGPGQANQEIAAMIDTEFAKQTSLDAVAQAVVDRVKRIHSDTFASGGERARFCPRHEDMTLLVRNFGYPLGEMSQPTPSPAPAAGGRVYPVSVPYSSAQSTSKTSVTLSLVMPSQGQMVNGAHSASTLDEATPTLTNQSPTLTLQSTNTHTQSSSSSSDGGLFRSRPAHSLPPGEDGRVEPYVDFAEFYRLWSVDHGEQSVVTAP
Consider B1, for which the binding entry in experiment [1] was “binds”.

B2: GFP-tagged TBK1 (protein, UniProt Q9UHD2 1-729)
chain: MQSTSNHLWLLSDILGQGATANVFRGRHKKTGDLFAIKVFNNISFLRPVDVQMREFEVLKKLNHKNIVKLFAIEEETTTRHKVLIMEFCPCGSLYTVLEEPSNAYGLPESEFLIVLRDVVGGMNHLRENGIVHRDIKPGNIMRVIGEDGQSVYKLTDFGAARELEDDEQFVSLYGTEEYLHPDMYERAVLRKDHQKKYGATVDLWSIGVTFYHAATGSLPFRPFEGPRRNKEVMYKIITGKPSGAISGVQKAENGPIDWSGDMPVSCSLSRGLQVLLTPVLANILEADQEKCWGFDQFFAETSDILHRMVIHVFSLQQMTAHKIYIHSYNTATIFHELVYKQTKIISSNQELIYEGRRLVLEPGRLAQHFPKTTEENPIFVVSREPLNTIGLIYEKISLPKVHPRYDLDGDASMAKAITGVVCYACRIASTLLLYQELMRKGIRWLIELIKDDYNETVHKKTEVVITLDFCIRNIEKTVKVYEKLMKINLEAAELGEISDIHTKLLRLSSSQGTIETSLQDIDSRLSPGGSLADAWAHQEGTHPKDRNVEKLQVLLNCMTEIYYQFKKDKAERRLAYNEEQIHKFDKQKLYYHATKAMTHFTDECVKKYEAFLNKSEEWIRKMLHLRKQLLSLTNQCFDIEEEVSKYQEYTNELQETLPQKMFTASSGIKHTMTPIYPSSNTLVEMTLGMKKLKEEMEGVVKELAENNHILERFGSLTMDGGLRNVDCL
For the molecule B2, the binding result in experiment [1] was “no binding”.

B3: GFP-tagged TLR7 (receptor, UniProt Q9NYK1 27-1049)
chain: ARWFPKTLPCDVTLDVPKNHVIVDCTDKHLTEIPGGIPTNTTNLTLTINHIPDISPASFHRLDHLVEIDFRCNCVPIPLGSKNNMCIKRLQIKPRSFSGLTYLKSLYLDGNQLLEIPQGLPPSLQLLSLEANNIFSIRKENLTELANIEILYLGQNCYYRNPCYVSYSIEKDAFLNLTKLKVLSLKDNNVTAVPTVLPSTLTELYLYNNMIAKIQEDDFNNLNQLQILDLSGNCPRCYNAPFPCAPCKNNSPLQIPVNAFDALTELKVLRLHSNSLQHVPPRWFKNINKLQELDLSQNFLAKEIGDAKFLHFLPSLIQLDLSFNFELQVYRASMNLSQAFSSLKSLKILRIRGYVFKELKSFNLSPLHNLQNLEVLDLGTNFIKIANLSMFKQFKRLKVIDLSVNKISPSGDSSEVGFCSNARTSVESYEPQVLEQLHYFRYDKYARSCRFKNKEASFMSVNESCYKYGQTLDLSKNSIFFVKSSDFQHLSFLKCLNLSGNLISQTLNGSEFQPLAELRYLDFSNNRLDLLHSTAFEELHKLEVLDISSNSHYFQSEGITHMLNFTKNLKVLQKLMMNDNDISSSTSRTMESESLRTLEFRGNHLDVLWREGDNRYLQLFKNLLKLEELDISKNSLSFLPSGVFDGMPPNLKNLSLAKNGLKSFSWKKLQCLKNLETLDLSHNQLTTVPERLSNCSRSLKNLILKNNQIRSLTKYFLQDAFQLRYLDLSSNKIQMIQKTSFPENVLNNLKMLLLHHNRFLCTCDAVWFVWWVNHTEVTIPYLATDVTCVGPGAHKGQSVISLDLYTCELDLTNLILFSLSISVSLFLMVMMTASHLYFWDVWYIYHFCKAKIKGYQRLISPDCCYDAFIVYDTKDPAVTEWVLAELVAKLEDPREKHFNLCLEERDWLPGQPVLENLSQSIQLSKKTVFVMTDKYAKTENFKIAFYLSHQRLMDEKVDVIILIFLEKPFQKSKFLQLRKRLCGSSVLEWPTNPQAHPYFWQCLKNALATDNHVAYSQVFKETV
For B3, the binding entry in experiment [1] was “binds”.

B4: GFP-tagged TAK1 (protein, UniProt O43318 1-606)
chain: MSTASAASSSSSSSAGEMIEAPSQVLNFEEIDYKEIEVEEVVGRGAFGVVCKAKWRAKDVAIKQIESESERKAFIVELRQLSRVNHPNIVKLYGACLNPVCLVMEYAEGGSLYNVLHGAEPLPYYTAAHAMSWCLQCSQGVAYLHSMQPKALIHRDLKPPNLLLVAGGTVLKICDFGTACDIQTHMTNNKGSAAWMAPEVFEGSNYSEKCDVFSWGIILWEVITRRKPFDEIGGPAFRIMWAVHNGTRPPLIKNLPKPIESLMTRCWSKDPSQRPSMEEIVKIMTHLMRYFPGADEPLQYPCQYSDEGQSNSATSTGSFMDIASTNTSNKSDTNMEQVPATNDTIKRLESKLLKNQAKQQSESGRLSLGASRGSSVESLPPTSEGKRMSADMSEIEARIAATTAYSKPKRGHRKTASFGNILDVPEIVISGNGQPRRRSIQDLTVTGTEPGQVSSRSSSPSVRMITTSGPTSEKPTRSHPWTPDDSTDTNGSDNSIPMAYLTLDHQLQPLAPCPNSKESMAVFEQHCKMAQEYMKVQTEIALLLQRKQELVAELDQDEKDQQNTSRLVQEHKKLLDENKSLSTYYQQCKKQLEVIRSQQQKRQGTS
Regarding B4, in experiment [1], the binding result is “binds”.

B5: PKCζ (endogenous) (protein, UniProt Q05513 1-592)
chain: MPSRTGPKMEGSGGRVRLKAHYGGDIFITSVDAATTFEELCEEVRDMCRLHQQHPLTLKWVDSEGDPCTVSSQMELEEAFRLARQCRDEGLIIHVFPSTPEQPGLPCPGEDKSIYRRGARRWRKLYRANGHLFQAKRFNRRAYCGQCSERIWGLARQGYRCINCKLLVHKRCHGLVPLTCRKHMDSVMPSQEPPVDDKNEDADLPSEETDGIAYISSSRKHDSIKDDSEDLKPVIDGMDGIKISQGLGLQDFDLIRVIGRGSYAKVLLVRLKKNDQIYAMKVVKKELVHDDEDIDWVQTEKHVFEQASSNPFLVGLHSCFQTTSRLFLVIEYVNGGDLMFHMQRQRKLPEEHARFYAAEICIALNFLHERGIIYRDLKLDNVLLDADGHIKLTDYGMCKEGLGPGDTTSTFCGTPNYIAPEILRGEEYGFSVDWWALGVLMFEMMAGRSPFDIITDNPDMNTEDYLFQVILEKPIRIPRFLSVKASHVLKGFLNKDPKERLGCRPQTGFSDIKSHAFFRSIDWDLLEKKQALPPFQPQITDDYGLDNFDTQFTSEPVQLTPDDEDAIKRIDQSEFEGFEYINPLLLSTEESV
As for B5, the binding entry in experiment [2] is on record as “binds”.
